Results as given in PubChem BioAssay AID1347423 (Functional Genomics Laboratory (NCATS/FGL), 2020).
The whole screen tested about 52,000 sequences, of which about 210 (0.4%) were called active.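 The calls were made as follows: active = gene whose silencing raises cell survival under the drug, median off-target-corrected z-score across its silencing RNAs 2 or more; inactive = the rest.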 The list shows a part of the results.

Experiment: Resistance to Poly (ADP-Ribose) Polymerase inhibitor: Gene Identification via Genome-wide siRNA Screen
Conditions: mouse BRCA2 R2336H ES cells, olaparib, CellTiter-Glo viability; active compounds read high
Outline: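 Genome-wide siRNA screen (3 siRNAs/gene, 20 nM) in mouse ES cells carrying hypomorphic BRCA2 R2336H; olaparib 500 nM added 48 h post-transfection, CellTiter-Glo viability 72 h later. Normalized to plate-median negative control; MAD z-scores, gene median, seed-adjusted.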

Sequence	z-score
CGACAAGAGAGCACAGAGATT against Traf3ip1	inactive: -2.74
CCUUUCCUUUGUUGAUUUCTT against Olfr887	inactive: 2.27
GGUGAAAAUAAUAGAGCGGTT against 4932425I24Rik	inactive: 0.404
GGUGUUCCUAUAAAAGUAUTT against Tfb2m	inactive: -1.86
GUCUUUCUGUCUUGUCUUGTT against Fbxo21	inactive: 0.0565
AAGAGCAUUAGUGCACAGATT against LOC384639	inactive: -1.22
CCAGACCUGUGGUAAUCUATT against 2810009O15Rik	inactive: -0.383
CCUACAUAGCGACAUCCUUTT against Car12	inactive: 0.905
GGCAGGCAGAAAGCUUUGUTT against Olfr1054	inactive: -0.0176
CGGUCUUUAUUACAUAAUCTT against Ptpro	inactive: 0.452
GGUACCGUCAGUUGUCCUATT against Rnf4	inactive: -1.52
CUCAGAUAUUCUUUUCCCATT against Olfr142	inactive: 1.13
GGAGGGAAAGAUCAUUACATT against Kirrel2	inactive: -0.84
GGACAGUUUGGUACCAGUGTT against 2810038K19Rik	inactive: -1.99
GGUGCUGGUGGAUGAACUATT against Nags	inactive: 0.523
GGAGAUGAUUGACCGGCUATT against Epc1	inactive: -1.24
GGAUUGAGUCACUUAUAGATT against Cul4a	inactive: 0.108
GGUUUCUUAUCAAACUCCATT against Farp2	inactive: -0.0396
GGUGACAAUGACCUUAUAGTT against Adsl	inactive: -1.4
GGAACAAAAGAAGAAUACCTT against Pkhd1	inactive: -0.498
GGUCCAUACUCCUAAAGAATT against Mpzl1	inactive: -0.617
GGUUCUAAUAAAAAUCGGUTT against Pcdhb1	inactive: 0.852
GGAUUUCCUGUUCUUUCUATT against Skb1	inactive: -0.419
GGAUGUGGUCUGAAUUACCTT against Prkcm	inactive: 0.779
GGCAAACUCGGGUAUACACTT against 8030451F13Rik	inactive: 1.56
CGUGUGCAAAGAAGCUAAATT against Mdm2	inactive: -1.49
UUUACUCUCAUGGUAACCUTT against Olfr798	inactive: -0.421

Reprinted at random: 2 records from the list
Sequence	z-score
GGUGCUGGUGGAUGAACUATT against Nags	inactive: 0.523
GUCUUUCUGUCUUGUCUUGTT against Fbxo21	inactive: 0.0565

The results go on.

Sequence	z-score
GGUAGUCACUAUCUUAAUCTT against Olfr1101	inactive: 0.0457
GGAACAGAAACAAGGUUUUTT against AA407930	inactive: -0.112
CGAGAAUAUUCGCCCAACCTT against Erbb3	inactive: -0.303
CGCCGUAUUUAGACUAAAATT against Capn11	inactive: -0.14
GCUAAUCACCAAAGCUGAGTT against D3Wsu161e	inactive: -0.792
GGAGAAUCAUGUGAGCCUGTT against Tph1	inactive: -2.12
CCUGAUAUUCAUGACCAAATT against Wasf2	inactive: -0.129
GCUCAUAAUUUUGACAGCUTT against Cyp51	inactive: -0.0314
GGUUGUGUAAAAUAGUACUTT against Hp1bp3	inactive: 0.35
CCAUGAAAGAGGUAAUGCATT against Mdm4	inactive: -0.694
CCGAACAAAGAACUGUUCATT against AI132487	inactive: -0.624
GGGUUUUAUUGGAAAAGGATT against Riok3	inactive: 0.523
CCAGAACUCACUGUUGAUUTT against Gabre	inactive: 1.08
GGAAAGAGCUUUUUAUUGUTT against Zfp235	inactive: 0.999
GCUGCACUGACAUAGGAGUTT against LOC547431	inactive: -0.112
CGUGUAUCGUUGUCUGAAUTT against Donson	inactive: -0.353
GGAAGUUUCUGAAUGCUGUTT against Klrd1	active: 2.01
GCGCGCACGAUGCUUCAUUTT against Tm7sf4	inactive: -1.57
GGACAUUGUAGGAGCCCAUTT against Kynu	inactive: -2.32
GCGUGGAGAACCGUUAAUCTT against Shrm	inactive: 0.183
AACCUCAAAUGUUCAGUCCTT against 2310002A05Rik	inactive: -0.713
GCUGUCACAGUUUGUGAUUTT against Gak	inactive: 0.753
GCAUUAAGCAAUGGCAUCATT against Cbfa2t2h	inactive: -0.0376
GCACCCUGAUGACUGAGUUTT against Olfr204	inactive: -0.409
GGUCUUGAAUGUCAAGGCUTT against Mylk	inactive: 0.599
GCACCGUUCAAGAAAUCGATT against 2610034N03Rik	inactive: -0.0263
GCAAGGUUAUCGCAUUUGGTT against Olfr1511	inactive: -0.801

Sequence	z-score
CCAAUGCAAUGUUAGCUUUTT against Tas1r3	inactive: 0.198
GGGUAUCAGUGCCUUCCUGTT against Acads	inactive: 0.08
GGAGUCCACAUGGAAAUCATT against 4930486G11Rik	inactive: 0.267
CCGUAGACCCGGUUUAUGATT against C130099A20Rik	inactive: -0.943
GGAAAAGUCCAAGUUUGAATT against Hmgb2	inactive: 0.178
GGACUCCAAACCUAAGUGATT against 4930517K11Rik	inactive: 1.45
GCUAGGAUUGUUCACAAACTT against Spdef	inactive: 0.191
ACUAUGGUUGGUUCAAACGTT against Acat2	inactive: -2.46
GGAUCUGAUAACGUGGACATT against H2-Q2	inactive: 1.43
CGUACCAAAUGCUAACAUUTT against 4632419K20Rik	inactive: 1.16
GGGCCAAGGAACCUAUUUGTT against Ltbr	inactive: -2.14
GGCAAUGUGCUGAUCCACUTT against 1810073N04Rik	inactive: -0.839
GGAAGCCAAAAAGUUUUUATT against Cyp3a44	inactive: 0.622
CGAGAACCCACUUUUAAAGTT against Olfr701	inactive: 0.837
GGUCAUUGGUAAUUUUACATT against Rsn	inactive: 0.621
CCAAAUCCGGGAAAAAGAGTT against MGC38735	inactive: -1.58
GGCCUGGAUGGAAAUUUGCTT against Fabp4	inactive: 0.492
CCAUUAAUCCCUGGAGCGATT against Guca1a	inactive: -1.58
CCAAAUGACAAAAAACCUUTT against Zfp217	inactive: 1.52
GCAUAUCCAAACAUGUGAUTT against Rnase11	inactive: -0.774
GGCACUUAAGGAAAUUGGGTT against Bloc1s1	inactive: -1.97
GGAGCUGCUUUCAAAGCUGTT against BC006583	inactive: -0.222
GGUUCUUUCCAAACAAGAGTT against Evc	inactive: 0.132
CGGAAAUUGACCUACAAUATT against Gtf3c5	inactive: -1.35
GGCUACUGAUUAAAUGCUATT against Ermap	inactive: -0.869
GGAGCUUCUUGACCUCGUGTT against Frmd4a	inactive: 0.227
GGAUUGAAGCAGGCAGCUUTT against Purb	inactive: 2.69

Single values from the results shown:
z-score with GGUACCGUCAGUUGUCCUATT against Rnf4 is entered as inactive: -1.52
z-score with CCGAACAAAGAACUGUUCATT against AI132487 is entered as inactive: -0.624
z-score with GCAUAUCCAAACAUGUGAUTT against Rnase11 is entered as inactive: -0.774
z-score with GGGUUUUAUUGGAAAAGGATT against Riok3 is entered as inactive: 0.523

Further records follow.

Sequence	z-score
CCCAAGAGCAAACUAUGAATT against Sult3a1	inactive: 1.37
GCACAAUUUCAUACCUUGGTT against Olfr490	inactive: 0.348
GCCUGACUCUAGCUGUCAATT against 2010001M09Rik	inactive: -1.98
GCAACACGUCUUCUUUGCATT against Hadhsc	inactive: 2.17
CCCUUUCAUUUACUCGUUGTT against Olfr787	inactive: 0.183
CCACGAGUUGCUGUCGUCATT against Adam22	inactive: -1.63
GCUGUGAUGUUCAUUGAUATT against Oas2	inactive: -0.0111
GGUCCAUAUGUCUUUUUUCTT against 9430097D07Rik	inactive: -0.905
GGCUCGUCAGUUCUAAGUUTT against Cxcl10	inactive: -1.82
GCCGUUCCACUCUUGGUAATT against Ranbp6	inactive: -1
GGCUGUGAAUCUGAAGAGCTT against Chrna6	inactive: -0.24
GGACUGUCAAUACUCUUUUTT against Gpr33	inactive: -2.21
GGGAUGUGGAAAGAAUCCATT against Ckn1	inactive: 0.913
GCAGGGCUUUAUAGGUUGUTT against BC028278	inactive: 1.53
GGUUUUAGAGGAGUUCUCCTT against Pvrl1	inactive: 1.19
GGAUGAAUAAGGACAGAUUTT against 1700048E23Rik	inactive: -1.2
GGAGCAGCAGAAGAUCCUUTT against Olfr47	inactive: 1.92
GCAUAAUGCUGUCACCCUCTT against Jtv1	inactive: -0.496
GCUGCCGGAAAAGUGUCUATT against Lrrn3	inactive: 0.397
CCGAAUUUUUCAAUGGCAATT against Pzp	inactive: 0.691
GCUGGACAAACGAUGGUCATT against Wdr10	inactive: 0.725
AGACAUCGUGCGAUAUUUGTT against Cdkn2a	inactive: -0.826
GGUUUACCUCUAUAAGAAUTT against Tas2r106	inactive: -0.335
GGGAAAUGGCUCAUACUGGTT against 2210010C04Rik	inactive: -0.608
